Source: the supplement of paper PMC6331611
Values joined by “and” are separate entries in the source; they are usually repeats but may differ in a detail not shown here. Equal entries are not always repeated. ± gives the standard deviation of the averaged measurements. In all, about 1,600 compounds were measured (“normalized growth (OD600, IQM-normalized) in LPM”: median about 1, lowest 2% from about 0.014 on). The list shows a part of the results.

The compounds below were run on Salmonella enterica serovar Typhimurium SL1344 (assay: normalized growth (OD600, IQM-normalized) in LPM (fraction of plate interquartile mean); higher = more bacterial growth (less inhibition)). Conditions: LPM pH 5.8; 10 µM; 16 h.

Structure (SMILES)	normalized growth
COC(=O)C1=C(C)NC(C)=C(C(=O)OC(C)C)C1c1cccc2nonc12 (centres undefined)	1.16 ± 0.2
CC(=O)SCC(Cc1ccccc1)C(=O)NCC(=O)OCc1ccccc1 (centres undefined)	1 ± 0.047
CC1COc2c(N3CCN(C)CC3)c(F)cc3c(=O)c(C(=O)O)cn1c23 (centres undefined)	0.0109 ± 0.00084
O=C(O)CCCC[C@@H]1SC[C@@H]2NC(=O)N[C@@H]21	0.999 ± 0.031
CN1CCN(c2cc3c(cc2F)c(=O)c(C(=O)O)cn3-c2ccc(F)cc2)CC1	0.0108 ± 0.00018
C#CCN(C)CCCOc1ccc(Cl)cc1Cl	0.933 ± 0.04
O=C(O)CN(CCN(CC(=O)O)CC(=O)O)CCN(CC(=O)O)CC(=O)O	0.0445 ± 0.029
CC(C)NCC(O)c1cc(O)cc(O)c1 (centres undefined)	1.13 ± 0.082
CCN(CC)Cc1cc(Nc2ccnc3cc(Cl)ccc23)ccc1O	0.991 ± 0.09
CCC(=O)OCC(=O)[C@@]1(OC(=O)CC)[C@@H](C)C[C@H]2[C@@H]3CCC4=CC(=O)C=C[C@]4(C)[C@@]3(Cl)[C@@H](O)C[C@@]21C	0.95 ± 0.053
O=C(/C=C/C=C/c1ccc2c(c1)OCO2)N1CCCCC1	1.151 ± 0.0046
COc1ccccc1N1CCN(CCCNc2cc(=O)n(C)c(=O)n2C)CC1	1.08 ± 0.035
O=C1CCC(N2C(=O)c3ccccc3C2=O)C(=O)N1 (centres undefined)	1.08 ± 0.041
C=CCCCCCCCCC(=O)O	1.01 ± 0.038
CCCCc1nc(Cl)c(CO)n1Cc1ccc(-c2ccccc2-c2nnn[nH]2)cc1	0.945 ± 0.033
CC1(C)S[C@@H]2[C@H](NC(=O)Cc3ccccc3)C(=O)N2[C@H]1C(=O)O	1.01 ± 0.061
CC(=O)OCC1=C(C(=O)O)N2C(=O)[C@@H](NC(=O)Cc3cccs3)[C@H]2SC1	1.01 ± 0.054
CCOc1ccc(NC(=O)CC(C)O)cc1 (centres undefined)	1.02 ± 0.021
Cc1nc2n(c(=O)c1CCN1CCC(c3noc4cc(F)ccc34)CC1)CCCC2O (centres undefined)	1.02 ± 0.079
CCN(CC)CCNC(=O)COc1ccc(OC)cc1	0.869 ± 0.0096
CC(N)C(=O)OC(C)(C)Cc1ccc(Cl)cc1 (centres undefined)	0.917 ± 0.1
C[C@H]1[C@H](OC(=O)CCC(=O)O)O[C@@H]2O[C@@]3(C)CC[C@H]4[C@H](C)CC[C@@H]1[C@@]24OO3	0.951 ± 0.049

Structure (SMILES)	normalized growth
C[n+]1ccccc1/C=N/O	0.929 ± 0.036
CCC(C)n1ncn(-c2ccc(N3CCN(c4ccc(OCC5COC(Cn6cncn6)(c6ccc(Cl)cc6Cl)O5)cc4)CC3)cc2)c1=O (centres undefined)	1.01 ± 0.028
Cc1cccc(Nc2ccccc2C(=O)O)c1C	1.03 ± 0.07
O=C(O)CCNC(=O)c1ccc(/N=N/c2ccc(O)c(C(=O)O)c2)cc1	1 ± 0.051
CNCCCN1c2ccccc2CCc2ccccc21	1.05 ± 0.015
O=C1OC(CN2CCOCC2)CN1/N=C/c1ccc([N+](=O)[O-])o1 (centres undefined)	0.957 ± 0.062
CC[n+]1c(-c2ccccc2)c2cc(N)ccc2c2ccc(N)cc21	0.808 ± 0.014
COC(=O)C1=C(C)NC(C)=C(C(=O)OCC(C)C)C1c1ccccc1[N+](=O)[O-] (centres undefined)	0.401 ± 0.024
CN1CCN(c2c(F)cc3c(=O)c(C(=O)O)cn4c3c2SCC4)CC1	0.02519 ± 0.00023
COC(=O)C1=C(C)NC(C)=C(C(=O)OCCN(C)Cc2ccccc2)C1c1cccc([N+](=O)[O-])c1 (centres undefined)	0.976 ± 0.055
Cc1ccccc1C(OCCN(C)C)c1ccccc1 (centres undefined)	0.94 ± 0.048
O=C1C(O)=C([C@H]2CC[C@H](c3ccc(Cl)cc3)CC2)C(=O)c2ccccc21	1.047 ± 0.0079
COc1c2ccoc2cc2oc(=O)ccc12	1.11 ± 0.064
NC(=O)NC1NC(=O)NC1=O (centres undefined)	0.986 ± 0.053
O=C1CCc2ccc(OCCCCN3CCN(c4cccc(Cl)c4Cl)CC3)cc2N1	1.04 ± 0.03
CN(C)CCOC(c1ccc(Cl)cc1)c1ccccn1 (centres undefined)	1.04 ± 0.035
CCCCCOC(=O)Nc1nc(=O)n([C@@H]2O[C@H](C)[C@@H](O)[C@H]2O)cc1F	1.36 ± 0.17
CCCCNc1ccc(C(=O)OCCN(C)C)cc1	1.06 ± 0.023
CCN(CC)CCOc1ccc(C(=C(Cl)c2ccccc2)c2ccccc2)cc1	1.07 ± 0.023
CN1CCC(=C2c3ccccc3CCc3sccc32)CC1	1.02 ± 0.019
CN1CCOC(c2ccccc2)c2ccccc2C1 (centres undefined)	1.28 ± 0.087
O=C1[C@H](CC[C@H](O)c2ccc(F)cc2)[C@@H](c2ccc(O)cc2)N1c1ccc(F)cc1	1.09 ± 0.1

Shown bar-delimited: entries from further up.
Structure (SMILES) | normalized growth
CNCCCN1c2ccccc2CCc2ccccc21 | 1.05 ± 0.015
COC(=O)C1=C(C)NC(C)=C(C(=O)OCCN(C)Cc2ccccc2)C1c1cccc([N+](=O)[O-])c1 (centres undefined) | 0.976 ± 0.055
CCCCNc1ccc(C(=O)OCCN(C)C)cc1 | 1.06 ± 0.023
CN1CCOC(c2ccccc2)c2ccccc2C1 (centres undefined) | 1.28 ± 0.087

Further structures.

Structure (SMILES)	normalized growth
O=S(=O)(O)c1cc(I)c(O)c2ncccc12	0.986 ± 0.052
Cc1cnc(C(=O)NCCc2ccc(S(=O)(=O)NC(=O)NC3CCCCC3)cc2)cn1	0.979 ± 0.059
O=C(O)COCCN1CCN([C@H](c2ccccc2)c2ccc(Cl)cc2)CC1	0.951 ± 0.031
CC(O)(P(=O)(O)O)P(=O)(O)O	1.09 ± 0.045
CCC1NC(=O)c2cc(S(N)(=O)=O)c(Cl)cc2N1 (centres undefined)	0.932 ± 0.036
CC(C)Cc1ccc(C(C)C(=O)O)cc1 (centres undefined)	0.861 ± 0.032
COc1ccc(CN2CCN(C(c3ccc(F)cc3)c3ccc(F)cc3)CC2)c(OC)c1OC	0.926 ± 0.07
OCc1ccccn1	0.99 ± 0.079
COCCc1ccc(OCC(O)CNC(C)C)cc1 (centres undefined)	1.14 ± 0.11
Nc1nc2[nH]cc(CCc3ccc(C(=O)N[C@@H](CCC(=O)O)C(=O)O)cc3)c2c(=O)[nH]1	1.03 ± 0.04
CC(C)(C)NC[C@H](O)COc1ccccc1C1CCCC1	1.05 ± 0.017
COc1ccc(C(=O)c2ccccc2O)c(O)c1	1 ± 0.027
Cc1ncc(COP(=O)([O-])[O-])c(CN(CCN(CC(=O)O)Cc2c(COP(=O)([O-])O)cnc(C)c2O)CC(=O)O)c1O.[Mn].[Na+].[Na+].[Na+]	1.04 ± 0.03
CC1=C(C/C=C(\C)CCC[C@H](C)CCC[C@H](C)CCCC(C)C)C(=O)c2ccccc2C1=O	1.02 ± 0.063
O=C(O)C1(C(=O)O)CCC1.[NH2-].[NH2-].[Pt+2]	0.471 ± 0.4
Cc1cnc(C(=O)O)c[n+]1[O-]	0.993 ± 0.078
CC(=O)Nc1cccc(O)c1	1.02 ± 0.014
CC/C(=C(\c1ccccc1)c1ccc(OCCN(C)C)cc1)c1ccccc1	1.12 ± 0.05
CCc1oc2ccccc2c1C(=O)c1cc(Br)c(O)c(Br)c1	1 ± 0.018
NCc1ccc(S(N)(=O)=O)cc1	1.94 ± 0.42
CN[C@@H]1[C@H](O[C@H]2[C@H](O[C@H]3[C@H](O)[C@@H](O)[C@H](NC(=N)N)[C@@H](O)[C@@H]3NC(=N)N)O[C@@H](C)[C@]2(O)CO)O[C@@H](CO)[C@H](O)[C@H]1O	0.952 ± 0.011
CC[N+](CC)(CC)CCOc1cccc(OCC[N+](CC)(CC)CC)c1OCC[N+](CC)(CC)CC	1.04 ± 0.041

Structure (SMILES)	normalized growth
CCOC(=O)[N-]c1c[n+](N2CCOCC2)no1	0.972 ± 0.073
CC(C)(C)NCC(O)c1cc(O)cc(O)c1 (centres undefined)	1.07 ± 0.017
C#C[C@]1(O)CC[C@H]2[C@@H]3CCC4=C(CCC(=O)C4)[C@H]3CC[C@@]21C	0.956 ± 0.026
COc1cc2ncnc(Nc3ccc(F)c(Cl)c3)c2cc1OCCCN1CCOCC1	1.21 ± 0.16
CCOc1ccc(NC(C)=O)cc1	0.947 ± 0.028
CN1CCC[C@@H]1CCO[C@](C)(c1ccccc1)c1ccc(Cl)cc1	1.02 ± 0.026
O=C(O)c1ccccc1	1.02 ± 0.045
CC(=O)Nc1ccc(C(=O)O)cc1	1.01 ± 0.14
OC(CCN1CCCCC1)(c1ccccc1)C1CCCCC1 (centres undefined)	0.942 ± 0.093
N=C(N)N/N=C/c1c(Cl)cccc1Cl	1.02 ± 0.021
Cc1ccc2c(Cl)cc(Cl)c(O)c2n1	0.917 ± 0.023
CCCc1nc(C(C)(C)O)c(C(=O)O)n1Cc1ccc(-c2ccccc2-c2nnn[nH]2)cc1	1.03 ± 0.1
O=C(OCc1ccccc1)c1ccccc1	1.09 ± 0.044
CN(C)CCOC(=O)COc1ccc(Cl)cc1	1.01 ± 0.03
COC(=O)C(N)CS (centres undefined)	0.992 ± 0.042
CC(N)C12CC3CC(CC(C3)C1)C2 (centres undefined)	1.35 ± 0.31
Nc1cc(-c2ccncc2)c[nH]c1=O	0.687 ± 0.051
CN(CCOc1ccc(CC2SC(=O)NC2=O)cc1)c1ccccn1 (centres undefined)	0.881 ± 0.024
CN(C)CC[C@@H](c1ccc(Cl)cc1)c1ccccn1	1.05 and 1.01
NC(N)=O	0.954 ± 0.11
Cn1c([N+](=O)[O-])cnc1COC(N)=O	0.794 ± 0.08
CN(C)[C@@H]1C(O)=C(C(N)=O)C(=O)[C@@]2(O)C(O)=C3C(=O)c4c(O)ccc(Cl)c4[C@@H](O)[C@H]3C[C@@H]12	0.00865 ± 0.00039

Structure (SMILES)	normalized growth
OC[C@H]1O[C@@H](O[C@@H]2[C@@H](CO)OC(O)(CO)[C@H]2O)[C@H](O)[C@@H](O)[C@H]1O (mixture of isomers)	1.05 ± 0.039
CC(Oc1ccccc1)C(=O)N[C@@H]1C(=O)N2[C@@H]1SC(C)(C)[C@@H]2C(=O)O (some centres undefined)	1.13 ± 0.082
COc1ccc(-c2cc(C(F)F)nn2-c2ccc(S(N)(=O)=O)cc2)cc1F	1.01 ± 0.035
N[C@@H](C(=O)N[C@@H]1C(=O)N2C(C(=O)O)=C(Cl)CS[C@H]12)c1ccccc1	0.999 ± 0.021
COc1ccc(C(=O)NCc2ccc(OCCN(C)C)cc2)cc1OC	1.01 ± 0.038
Cn1nnnc1SCC1=C(C(=O)O)N2C(=O)[C@@H](NC(=O)[C@H](OC=O)c3ccccc3)[C@H]2SC1	1.17 ± 0.12
CCOC(=O)[C@H](CCc1ccccc1)N[C@@H](C)C(=O)N1CCC[C@H]1C(=O)O	0.901 ± 0.13
CO/N=C(\C(=O)N[C@@H]1C(=O)N2C(C(=O)O)=C(C[N+]3(C)CCCC3)CS[C@H]12)c1csc(N)n1	0.0232 ± 0.0056
CCCCC(=O)O[C@]1(C(=O)CO)CC[C@H]2[C@@H]3CCC4=CC(=O)CC[C@]4(C)[C@H]3[C@@H](O)C[C@@]21C	1.09 ± 0.044
CCc1cccc2c3c([nH]c12)C(CC)(CC(=O)O)OCC3 (centres undefined)	1.1 ± 0.028
Cc1noc(NS(=O)(=O)c2ccc(N)cc2)c1C	1.06 ± 0.073
CC1=C(CC(=O)O)c2cc(F)ccc2/C1=C\c1ccc([S+](C)[O-])cc1 (centres undefined)	1.06 ± 0.016
CC(Oc1c(Cl)cccc1Cl)C1=NCCN1 (centres undefined)	0.865 ± 0.015
CC(C)COC(=O)c1ccc(N)cc1	0.871 ± 0.03
Cc1ccccc1N1C(=O)c2cc(S(N)(=O)=O)c(Cl)cc2NC1C (centres undefined)	1.15 ± 0.071
Cc1cc(-n2c(=O)[nH]c(=O)n(C)c2=O)ccc1Oc1ccc(SC(F)(F)F)cc1	0.973 ± 0.019
OCCOCCN1CCN(C(c2ccccc2)c2ccc(Cl)cc2)CC1 (centres undefined)	0.986 ± 0.014
O=S(=O)(O)CCCS(=O)(=O)O	1.02 ± 0.042
CC(=O)Nc1ccc(O)cc1	0.903 ± 0.072
CCCCC(CC)CN=C(N)N=C(N)NCCCCCCNC(N)=NC(N)=NCC(CC)CCCC (centres undefined)	0.929 ± 0.026
COc1ccc2[nH]c([S+]([O-])Cc3ncc(C)c(OC)c3C)nc2c1 (centres undefined)	1.13 ± 0.048
